Source: PMC2932728, “The Canine Papillomavirus and Gamma HPV E7 Proteins Use an Alternative Domain to Bind and Destabilize the Retinoblastoma Protein” (PLoS Pathogens, 2010)
No constants are given. Whether binding was seen depends on the method and setting. In cells and extracts the contact can be indirect. A result given as binding can be weak or reduced; the word gives no strength.

Experiments:
[1] = target: T1, pRb expressed from RcCMV-Rb (UniProt P06400); test: co-IP; U2OS cells co-transfected with RcCMV-Rb and N-terminal HA-tagged E7 constructs; RIPA lysate; precipitated with polyclonal anti-pRb antibody, blotted with anti-pRb and anti-HA
T1 sequence: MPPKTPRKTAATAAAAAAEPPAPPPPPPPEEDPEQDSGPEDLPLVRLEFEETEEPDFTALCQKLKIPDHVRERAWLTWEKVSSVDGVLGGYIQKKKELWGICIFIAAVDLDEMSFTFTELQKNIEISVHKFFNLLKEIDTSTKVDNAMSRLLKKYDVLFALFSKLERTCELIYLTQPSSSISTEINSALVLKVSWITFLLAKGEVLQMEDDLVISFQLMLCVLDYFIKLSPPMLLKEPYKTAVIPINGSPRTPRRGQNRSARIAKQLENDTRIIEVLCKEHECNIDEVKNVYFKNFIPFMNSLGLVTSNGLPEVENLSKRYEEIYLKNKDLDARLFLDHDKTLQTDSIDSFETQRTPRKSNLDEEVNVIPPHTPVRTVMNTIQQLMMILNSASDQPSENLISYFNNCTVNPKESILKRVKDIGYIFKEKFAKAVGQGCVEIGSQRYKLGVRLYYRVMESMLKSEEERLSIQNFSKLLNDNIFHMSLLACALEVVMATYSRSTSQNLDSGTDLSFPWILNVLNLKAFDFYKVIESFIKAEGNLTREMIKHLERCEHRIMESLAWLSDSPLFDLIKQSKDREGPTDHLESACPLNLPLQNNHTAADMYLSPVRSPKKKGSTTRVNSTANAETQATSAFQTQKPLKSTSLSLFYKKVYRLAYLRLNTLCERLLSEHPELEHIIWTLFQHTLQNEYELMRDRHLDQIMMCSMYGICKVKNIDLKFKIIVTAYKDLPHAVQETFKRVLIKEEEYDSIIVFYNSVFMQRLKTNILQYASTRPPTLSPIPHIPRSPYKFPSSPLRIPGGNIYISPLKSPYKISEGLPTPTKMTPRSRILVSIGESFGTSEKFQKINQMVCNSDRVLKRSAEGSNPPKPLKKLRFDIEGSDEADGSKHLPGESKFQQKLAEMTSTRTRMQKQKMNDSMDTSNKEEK

[2] = target: GST HPV-4 E7 carboxyl-terminal domain (human papillomavirus type 4 (HPV-4)); test: pull-down; 5 µg GST fusion protein with 50 µg Jurkat cell nuclear extract, 1 h at 4°C in 20 mM Hepes/150 mM KCl/4 mM MgCl2/1 mM EDTA/0.02% Nonidet P-40/10% glycerol; glutathione-Sepharose beads; Western blot for pRb and GST, densitometry normalised to GSTE7, wild type CPV-2 E7 set to 100%; only the target purified
[3] = target: GST CPV-2 E7 S26C (canine papillomavirus type 2 (CPV-2)); test: as above
[4] = target: GST CPV-2 E7 S26G (canine papillomavirus type 2 (CPV-2)); test: as above
[5] = target: GST CPV-2 E7 ΔLXSXE (canine papillomavirus type 2 (CPV-2)); test: as above

Molecule	binding [1]	binding [2]	binding [3]	binding [4]	binding [5]
HA-tagged CPV-2 E7 carboxy-terminal domain (N-terminal HA) (canine papillomavirus type 2 (CPV-2)) (domain or fragment)	binds				
HA-tagged CPV-2 E7 ΔLXSXE (N-terminal HA) (canine papillomavirus type 2 (CPV-2))	binds				
HA-tagged CPV-2 E7 wild type (N-terminal HA) (canine papillomavirus type 2 (CPV-2))	binds				
human retinoblastoma tumor suppressor protein pRb (natural protein, human (endogenous in Jurkat), UniProt P06400 1-928, looked up, retinoblastoma protein pRb, human, endogenous in Jurkat cell nuclear extract; also called human pRb; source: endogenous, Jurkat cell nuclear extract) MPPKTPRKTAATAAAAAAEPPAPPPPPPPEEDPEQDSGPEDLPLVRLEFEETEEPDFTALCQKLKIPDHVRERAWLTWEKVSSVDGVLGGYIQKKKELWGICIFIAAVDLDEMSFTFTELQKNIEISVHKFFNLLKEIDTSTKVDNAMSRLLKKYDVLFALFSKLERTCELIYLTQPSSSISTEINSALVLKVSWITFLLAKGEVLQMEDDLVISFQLMLCVLDYFIKLSPPMLLKEPYKTAVIPINGSPRTPRRGQNRSARIAKQLENDTRIIEVLCKEHECNIDEVKNVYFKNFIPFMNSLGLVTSNGLPEVENLSKRYEEIYLKNKDLDARLFLDHDKTLQTDSIDSFETQRTPRKSNLDEEVNVIPPHTPVRTVMNTIQQLMMILNSASDQPSENLISYFNNCTVNPKESILKRVKDIGYIFKEKFAKAVGQGCVEIGSQRYKLGVRLYYRVMESMLKSEEERLSIQNFSKLLNDNIFHMSLLACALEVVMATYSRSTSQNLDSGTDLSFPWILNVLNLKAFDFYKVIESFIKAEGNLTREMIKHLERCEHRIMESLAWLSDSPLFDLIKQSKDREGPTDHLESACPLNLPLQNNHTAADMYLSPVRSPKKKGSTTRVNSTANAETQATSAFQTQKPLKSTSLSLFYKKVYRLAYLRLNTLCERLLSEHPELEHIIWTLFQHTLQNEYELMRDRHLDQIMMCSMYGICKVKNIDLKFKIIVTAYKDLPHAVQETFKRVLIKEEEYDSIIVFYNSVFMQRLKTNILQYASTRPPTLSPIPHIPRSPYKFPSSPLRIPGGNIYISPLKSPYKISEGLPTPTKMTPRSRILVSIGESFGTSEKFQKINQMVCNSDRVLKRSAEGSNPPKPLKKLRFDIEGSDEADGSKHLPGESKFQQKLAEMTSTRTRMQKQKMNDSMDTSNKEEK		binds	binds	binds	binds
